Some of the results follow.
compound: COc1ccc(Cn2ccc3cc(C)c(C(=O)NO)cc32)cc1; assay: dose-dependent thermal stabilisation call (2D-TPP, DLPTP, 10% FDR) (binary (1 = stabilised)); higher = stabilised by the compound; details: system: HL-60 intact cells; concentration range 0.04-10 µM
Description: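 2D thermal proteome profiling in intact HL-60 cells treated with BRD-3811 (0, 0.04, 0.29, 2, 10 uM) for 90 min at 37 C, then heated 3 min at one of 12 temperatures (42-63.9 C). Soluble protein was quantified by TMT10 MS. The value is the DLPTP call of the paper: dose-dependent thermal stabilisation over all temperatures at 10% FDR (F-test of a dose-response against a flat model); one experiment, one call per tested protein.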

Sequences of proteins named here, by UniProt entry; tags and fusion partners are left off. A change or cut given only in a name is not applied to a line headed by its entry.
UniProt Q9NQR4: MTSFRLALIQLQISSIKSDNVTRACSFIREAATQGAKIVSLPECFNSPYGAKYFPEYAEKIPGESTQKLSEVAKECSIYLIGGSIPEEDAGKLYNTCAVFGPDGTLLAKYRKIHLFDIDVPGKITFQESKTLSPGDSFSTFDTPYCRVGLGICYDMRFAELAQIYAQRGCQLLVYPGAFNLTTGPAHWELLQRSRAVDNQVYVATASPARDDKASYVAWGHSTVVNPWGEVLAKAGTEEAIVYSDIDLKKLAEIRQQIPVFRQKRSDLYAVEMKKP
UniProt Q9H8H0: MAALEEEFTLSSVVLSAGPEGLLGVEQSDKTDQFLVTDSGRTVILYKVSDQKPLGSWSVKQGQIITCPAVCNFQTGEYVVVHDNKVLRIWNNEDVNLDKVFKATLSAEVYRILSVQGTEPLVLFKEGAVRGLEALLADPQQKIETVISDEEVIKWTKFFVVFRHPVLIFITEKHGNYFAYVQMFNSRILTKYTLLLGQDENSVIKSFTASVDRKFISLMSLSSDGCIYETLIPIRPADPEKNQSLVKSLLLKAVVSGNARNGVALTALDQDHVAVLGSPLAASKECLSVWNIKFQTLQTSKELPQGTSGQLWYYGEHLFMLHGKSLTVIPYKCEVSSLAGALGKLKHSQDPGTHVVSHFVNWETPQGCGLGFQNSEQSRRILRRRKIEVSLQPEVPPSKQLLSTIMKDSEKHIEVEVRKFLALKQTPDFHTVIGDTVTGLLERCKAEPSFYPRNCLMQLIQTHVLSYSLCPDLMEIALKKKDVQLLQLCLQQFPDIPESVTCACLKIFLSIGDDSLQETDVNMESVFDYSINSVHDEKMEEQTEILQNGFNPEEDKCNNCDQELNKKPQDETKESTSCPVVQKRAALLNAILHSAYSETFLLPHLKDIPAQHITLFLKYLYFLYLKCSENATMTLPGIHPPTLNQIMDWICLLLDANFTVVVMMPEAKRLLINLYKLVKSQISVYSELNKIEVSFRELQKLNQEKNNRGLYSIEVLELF
UniProt Q96MG7: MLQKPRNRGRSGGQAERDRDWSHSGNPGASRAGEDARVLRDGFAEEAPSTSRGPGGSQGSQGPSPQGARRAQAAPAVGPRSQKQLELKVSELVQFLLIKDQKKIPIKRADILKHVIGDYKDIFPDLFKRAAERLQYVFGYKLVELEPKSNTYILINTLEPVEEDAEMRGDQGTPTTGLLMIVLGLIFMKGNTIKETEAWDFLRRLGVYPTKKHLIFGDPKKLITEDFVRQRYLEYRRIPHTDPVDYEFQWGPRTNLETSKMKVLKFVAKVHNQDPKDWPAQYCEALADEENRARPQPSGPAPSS
UniProt P28331, whole entry: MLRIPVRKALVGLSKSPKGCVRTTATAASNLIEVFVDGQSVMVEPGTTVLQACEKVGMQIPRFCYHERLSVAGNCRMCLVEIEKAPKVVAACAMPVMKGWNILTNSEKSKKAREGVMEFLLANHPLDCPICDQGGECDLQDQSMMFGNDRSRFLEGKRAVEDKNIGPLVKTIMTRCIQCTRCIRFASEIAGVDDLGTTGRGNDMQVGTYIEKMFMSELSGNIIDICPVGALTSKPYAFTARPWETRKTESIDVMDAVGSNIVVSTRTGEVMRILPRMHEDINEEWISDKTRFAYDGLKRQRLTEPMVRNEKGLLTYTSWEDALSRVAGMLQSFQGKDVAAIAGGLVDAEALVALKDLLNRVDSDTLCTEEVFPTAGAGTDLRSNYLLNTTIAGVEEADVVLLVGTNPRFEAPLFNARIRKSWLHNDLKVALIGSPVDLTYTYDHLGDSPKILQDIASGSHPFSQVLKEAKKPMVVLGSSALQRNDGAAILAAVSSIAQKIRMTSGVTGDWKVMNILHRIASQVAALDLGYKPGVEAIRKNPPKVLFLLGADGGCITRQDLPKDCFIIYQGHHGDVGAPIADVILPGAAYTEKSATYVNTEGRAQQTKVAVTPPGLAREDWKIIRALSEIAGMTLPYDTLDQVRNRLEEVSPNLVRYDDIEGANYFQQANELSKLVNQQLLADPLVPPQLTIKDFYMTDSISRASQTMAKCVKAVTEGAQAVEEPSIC
UniProt Q9NX24: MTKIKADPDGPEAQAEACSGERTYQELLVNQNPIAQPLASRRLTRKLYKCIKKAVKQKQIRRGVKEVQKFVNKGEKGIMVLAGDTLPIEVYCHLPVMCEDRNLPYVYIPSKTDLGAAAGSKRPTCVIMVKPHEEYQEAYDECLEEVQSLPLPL
UniProt Q9BZD4: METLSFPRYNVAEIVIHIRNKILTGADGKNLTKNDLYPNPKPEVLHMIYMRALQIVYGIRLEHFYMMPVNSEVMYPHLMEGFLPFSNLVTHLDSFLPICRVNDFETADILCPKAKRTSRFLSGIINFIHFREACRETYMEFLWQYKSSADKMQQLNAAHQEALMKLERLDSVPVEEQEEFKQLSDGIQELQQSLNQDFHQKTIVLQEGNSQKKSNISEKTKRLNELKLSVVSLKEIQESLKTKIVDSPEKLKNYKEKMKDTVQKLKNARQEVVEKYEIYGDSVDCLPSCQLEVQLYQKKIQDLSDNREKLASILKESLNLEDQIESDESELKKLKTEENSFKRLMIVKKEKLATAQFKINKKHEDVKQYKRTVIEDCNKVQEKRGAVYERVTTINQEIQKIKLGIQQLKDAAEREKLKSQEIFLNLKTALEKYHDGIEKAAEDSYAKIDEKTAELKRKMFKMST
UniProt P19338, whole entry: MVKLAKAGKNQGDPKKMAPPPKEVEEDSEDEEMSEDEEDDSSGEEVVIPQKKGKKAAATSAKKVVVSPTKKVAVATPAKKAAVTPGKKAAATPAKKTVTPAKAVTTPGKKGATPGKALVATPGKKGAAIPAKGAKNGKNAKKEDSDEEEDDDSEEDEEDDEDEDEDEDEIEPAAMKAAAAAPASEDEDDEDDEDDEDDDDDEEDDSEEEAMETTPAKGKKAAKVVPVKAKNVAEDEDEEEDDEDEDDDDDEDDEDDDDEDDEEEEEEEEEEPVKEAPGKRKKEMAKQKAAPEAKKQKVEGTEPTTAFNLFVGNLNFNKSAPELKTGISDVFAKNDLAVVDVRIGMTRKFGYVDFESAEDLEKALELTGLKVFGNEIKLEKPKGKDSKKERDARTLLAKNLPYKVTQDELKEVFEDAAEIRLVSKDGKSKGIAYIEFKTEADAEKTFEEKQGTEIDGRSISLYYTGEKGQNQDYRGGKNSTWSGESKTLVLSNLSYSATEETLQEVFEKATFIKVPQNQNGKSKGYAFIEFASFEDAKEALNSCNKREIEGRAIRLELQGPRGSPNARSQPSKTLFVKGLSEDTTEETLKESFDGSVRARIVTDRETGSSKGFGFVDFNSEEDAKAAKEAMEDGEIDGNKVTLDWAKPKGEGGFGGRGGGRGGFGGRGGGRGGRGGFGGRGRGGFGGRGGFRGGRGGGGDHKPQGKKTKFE
UniProt P51956: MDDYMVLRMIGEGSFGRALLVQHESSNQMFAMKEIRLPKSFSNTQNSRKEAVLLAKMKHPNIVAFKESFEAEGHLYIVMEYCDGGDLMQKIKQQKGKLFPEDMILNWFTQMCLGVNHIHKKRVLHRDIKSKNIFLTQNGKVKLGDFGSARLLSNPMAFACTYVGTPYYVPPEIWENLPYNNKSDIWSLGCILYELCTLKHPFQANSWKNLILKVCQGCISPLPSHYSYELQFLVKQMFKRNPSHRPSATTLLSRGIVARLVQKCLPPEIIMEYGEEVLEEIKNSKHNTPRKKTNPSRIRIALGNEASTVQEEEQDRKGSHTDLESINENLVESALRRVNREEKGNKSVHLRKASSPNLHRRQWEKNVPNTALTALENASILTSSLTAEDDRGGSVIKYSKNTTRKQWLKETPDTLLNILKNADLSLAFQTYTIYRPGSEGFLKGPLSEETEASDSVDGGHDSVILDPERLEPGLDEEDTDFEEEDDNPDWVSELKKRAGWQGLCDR
UniProt Q9Y6Q9, whole entry, looked up: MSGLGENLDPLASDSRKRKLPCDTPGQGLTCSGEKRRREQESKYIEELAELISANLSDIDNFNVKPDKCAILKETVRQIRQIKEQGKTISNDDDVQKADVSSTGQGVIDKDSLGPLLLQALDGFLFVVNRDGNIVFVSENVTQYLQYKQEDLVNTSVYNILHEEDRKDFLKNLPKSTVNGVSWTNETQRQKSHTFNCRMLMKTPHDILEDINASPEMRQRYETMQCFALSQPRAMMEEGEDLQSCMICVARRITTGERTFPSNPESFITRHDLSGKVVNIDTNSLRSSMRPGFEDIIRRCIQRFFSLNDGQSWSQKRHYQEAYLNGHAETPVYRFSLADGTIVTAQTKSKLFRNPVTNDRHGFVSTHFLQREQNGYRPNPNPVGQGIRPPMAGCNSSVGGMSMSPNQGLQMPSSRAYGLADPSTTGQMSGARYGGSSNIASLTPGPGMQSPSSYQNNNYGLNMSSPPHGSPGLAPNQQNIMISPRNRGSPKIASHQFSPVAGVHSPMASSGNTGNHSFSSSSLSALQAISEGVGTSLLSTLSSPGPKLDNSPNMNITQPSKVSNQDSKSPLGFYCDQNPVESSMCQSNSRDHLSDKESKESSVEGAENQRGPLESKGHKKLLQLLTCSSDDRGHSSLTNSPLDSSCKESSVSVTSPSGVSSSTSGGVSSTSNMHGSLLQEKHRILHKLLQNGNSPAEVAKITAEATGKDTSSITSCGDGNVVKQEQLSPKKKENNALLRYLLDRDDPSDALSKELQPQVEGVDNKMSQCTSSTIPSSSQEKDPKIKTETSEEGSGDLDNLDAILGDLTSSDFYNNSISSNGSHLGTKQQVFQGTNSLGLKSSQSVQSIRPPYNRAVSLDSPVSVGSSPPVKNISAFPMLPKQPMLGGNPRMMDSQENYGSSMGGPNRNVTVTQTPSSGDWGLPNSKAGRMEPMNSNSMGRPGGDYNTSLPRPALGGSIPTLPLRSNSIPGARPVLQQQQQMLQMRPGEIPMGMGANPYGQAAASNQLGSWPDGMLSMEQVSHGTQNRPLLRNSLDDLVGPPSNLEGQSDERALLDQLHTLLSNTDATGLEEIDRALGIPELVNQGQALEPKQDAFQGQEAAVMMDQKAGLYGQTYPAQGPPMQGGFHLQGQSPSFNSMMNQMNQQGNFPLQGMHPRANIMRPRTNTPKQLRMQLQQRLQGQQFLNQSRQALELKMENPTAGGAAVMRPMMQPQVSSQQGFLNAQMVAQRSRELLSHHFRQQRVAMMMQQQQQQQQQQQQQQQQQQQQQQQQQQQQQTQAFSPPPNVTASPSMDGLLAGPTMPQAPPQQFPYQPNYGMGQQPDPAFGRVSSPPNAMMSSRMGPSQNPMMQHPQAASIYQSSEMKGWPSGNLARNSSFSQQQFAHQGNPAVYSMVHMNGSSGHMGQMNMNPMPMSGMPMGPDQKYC
UniProt O00217, whole entry: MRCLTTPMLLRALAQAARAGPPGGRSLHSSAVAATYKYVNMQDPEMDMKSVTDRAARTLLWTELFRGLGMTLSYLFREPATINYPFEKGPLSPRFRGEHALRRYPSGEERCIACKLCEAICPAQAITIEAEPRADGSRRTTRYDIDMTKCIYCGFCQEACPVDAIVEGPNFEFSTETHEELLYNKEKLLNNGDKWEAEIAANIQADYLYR
UniProt P53384: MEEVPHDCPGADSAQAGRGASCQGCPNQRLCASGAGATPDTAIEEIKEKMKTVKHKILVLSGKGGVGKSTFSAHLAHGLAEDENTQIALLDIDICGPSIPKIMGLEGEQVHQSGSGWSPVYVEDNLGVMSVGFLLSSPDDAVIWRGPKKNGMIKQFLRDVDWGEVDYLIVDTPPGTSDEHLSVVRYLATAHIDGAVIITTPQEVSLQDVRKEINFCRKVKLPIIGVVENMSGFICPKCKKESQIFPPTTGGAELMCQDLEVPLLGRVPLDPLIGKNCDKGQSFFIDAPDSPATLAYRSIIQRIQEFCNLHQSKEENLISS
UniProt P80303: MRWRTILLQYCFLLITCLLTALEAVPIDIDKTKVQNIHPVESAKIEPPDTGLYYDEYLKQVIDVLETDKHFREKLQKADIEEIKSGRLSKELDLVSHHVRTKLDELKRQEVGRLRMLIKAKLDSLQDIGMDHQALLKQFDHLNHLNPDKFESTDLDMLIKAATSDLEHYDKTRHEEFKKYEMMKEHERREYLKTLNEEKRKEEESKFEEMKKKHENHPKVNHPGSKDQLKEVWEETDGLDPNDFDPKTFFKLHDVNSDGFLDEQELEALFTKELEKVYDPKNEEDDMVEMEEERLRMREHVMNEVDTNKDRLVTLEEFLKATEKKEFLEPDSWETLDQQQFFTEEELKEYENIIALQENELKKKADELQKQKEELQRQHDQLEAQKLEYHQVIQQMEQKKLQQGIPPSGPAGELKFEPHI
UniProt P78549: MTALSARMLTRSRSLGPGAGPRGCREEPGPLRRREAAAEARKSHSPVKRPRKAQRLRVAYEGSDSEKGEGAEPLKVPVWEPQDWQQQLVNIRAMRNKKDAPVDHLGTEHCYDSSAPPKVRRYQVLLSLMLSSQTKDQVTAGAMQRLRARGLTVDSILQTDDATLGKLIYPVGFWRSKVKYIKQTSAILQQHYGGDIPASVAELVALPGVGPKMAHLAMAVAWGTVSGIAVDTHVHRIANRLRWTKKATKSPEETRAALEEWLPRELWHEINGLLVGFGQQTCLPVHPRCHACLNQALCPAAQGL

| Target | dose-dependent thermal stabilisation call |
| --- | --- |
| NIT2 (UniProt Q9NQR4) | inactive: 0 |
| NUMB (UniProt P49757) | inactive: 0 |
| NAT5 | inactive: 0 |
| NUDT21 (UniProt O43809) | inactive: 0 |
| NIPBL (UniProt Q6KC79) | inactive: 0 |
| NOL11 (UniProt Q9H8H0) | inactive: 0 |
| NASP (UniProt P49321) | inactive: 0 |
| NDNL2 (UniProt Q96MG7) | inactive: 0 |
| NDUFB8 (UniProt O95169) | inactive: 0 |
| NF1 (UniProt P21359) | inactive: 0 |
| NDUFS1 (UniProt P28331) | inactive: 0 |
| NFATC3 (UniProt Q12968) | inactive: 0 |
| NDUFA8 (UniProt P51970) | inactive: 0 |
| NR2C2AP (UniProt Q86WQ0) | inactive: 0 |
| NHP2 (UniProt Q9NX24) | inactive: 0 |
| NUF2 (UniProt Q9BZD4) | inactive: 0 |
| NDUFA10 (UniProt O95299) | inactive: 0 |
| NCL (UniProt P19338) | inactive: 0 |
| NAGK (UniProt Q9UJ70) | inactive: 0 |
| NFIC (UniProt P08651) | inactive: 0 |

| Target | dose-dependent thermal stabilisation call |
| --- | --- |
| NEK3 (UniProt P51956) | inactive: 0 |
| NGRN (UniProt Q9NPE2) | inactive: 0 |
| NUP107 (UniProt P57740) | inactive: 0 |
| NCOA3 (UniProt Q9Y6Q9) | inactive: 0 |
| NEU1 (UniProt Q99519) | inactive: 0 |
| NSFL1C (UniProt Q9UNZ2) | inactive: 0 |
| NR2C2 (UniProt P49116) | inactive: 0 |
| NCK2 (UniProt O43639) | inactive: 0 |
| NUDT1 (UniProt P36639) | inactive: 0 |
| NDUFS8 (UniProt O00217) | inactive: 0 |
| NUBP1 (UniProt P53384) | inactive: 0 |
| NCOR1 (UniProt O75376) | inactive: 0 |
| NMNAT1 (UniProt Q9HAN9) | inactive: 0 |
| NSL1 (UniProt Q96IY1) | inactive: 0 |
| NUDT16L1 (UniProt Q9BRJ7) | inactive: 0 |
| NUCB2 (UniProt P80303) | inactive: 0 |
| NARG1 (UniProt Q9BXJ9) | inactive: 0 |
| NTHL1 (UniProt P78549) | inactive: 0 |
| ND1 (UniProt P03886) | inactive: 0 |
| NFYB (UniProt P25208) | inactive: 0 |

Some of the entries above, reformatted.
NUBP1 (UniProt P53384)
  dose-dependent thermal stabilisation call: inactive: 0
NUCB2 (UniProt P80303)
  dose-dependent thermal stabilisation call: inactive: 0

From the supplement of paper PMC7666118
